Measured values as given in patent US20250041252A1, “POWDERS FOR INHALATION AND PRODUCTION PROCESS THEREOF” (UNIVERSITA' DEGLI STUDI DI PARMA, priority 2021, published 2025).
At least one read-out could not be matched to a standard name with certainty.

Conditions: mass balance of the dissolution test

CCN(CC)CC(=O)Nc1c(C)cccc1C [Lidocaine powder raw material, lidocaine]
Total recovery: 94.0 ± 3.3%
